Reference: US20060078955A1, “Method for retrieving delta9-THC from oral fluid” (Lin-Zhi International, priority 2004, published 2006)

Experiment: Adsorption of Δ^9-THC from spiked artificial oral fluid to cotton swab, read by G6PDH homogeneous enzyme immunoassay (Hitachi 717)
Format: physicochemical
Details: for Recovered from swab: oral fluid centrifuged from cotton swab after overnight storage

SMILES: CCCCCc1cc(O)c2c(c1)OC(C)(C)[C@@H]1CCC(C)=C[C@@H]21 [Δ^9-THC, Δ^9-tetrahydrocannabinol]
- Reference (Example 1, 25 ng/ml spiked, no adsorption to collection device): 350 mA/min
- Recovered from swab (Example 1, 25 ng/ml spiked): 321 mA/min
- Reference (Example 1, 100 ng/ml spiked, no adsorption to collection device): 420 mA/min
- Recovered from swab (Example 1, 100 ng/ml spiked): 326 mA/min
- Δ^9-THC depleted from the sample, i.e., adsorbed to the cotton swab (Example 5, 25, 50, 100 ng/ml spiked, 1 ml, overnight, centrifugation): > 95%
- Reference (Example 6, 25 ng/ml spiked, no adsorption): 340 mA/min
- Reference (Example 6, 50 ng/ml spiked, no adsorption): 400 mA/min
- Reference (Example 6, 100 ng/ml spiked, no adsorption): 420 mA/min
- Δ^9-THC adsorbed to the cotton swab (Example 6, 25, 50, 100 ng/ml spiked, 2.4 ml, overnight, compressed out): > 95%
